# Test results published in the supplement of paper PMC8728848.
# Some of the results follow.
# Key:
# Assay in all cases: glycan array binding signal (z-score within array); higher = stronger binding
# Settings in all cases: glycan notation: IUPAC condensed, linker removed
# [1] = target: Gal(b1-4)GlcNAc(b1-3)Gal(b1-4)[Fuc(a1-3)]GlcNAc(b1-3)Gal(b1-4)[Fuc(a1-3)]GlcNAc
# Summary of the method: (§1)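 Negative Z-scores can be read as non-binding. The Z-score is calculated within each array and then averaged across arrays of one protein sequence at different concentrations or buffers and across linkers. Arrays, 3228 in all, were curated from the Consortium for Functional Glycomics database and kept only where the protein sequence was available.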
# [2] = target: Gal(b1-4)GlcNAc(b1-3)GalNAc
# Summary of the method: as §1
# [3] = target: Gal(b1-4)GlcNAc(b1-3)[Gal(b1-4)GlcNAc(b1-6)]Gal(b1-4)GlcNAc
# Summary of the method: as §1
# [4] = target: Gal(b1-4)GlcNAc(b1-3)[Gal(b1-4)GlcNAc(b1-6)]GalNAc
# Summary of the method: as §1
# [5] = target: Gal(b1-4)GlcNAc(b1-3)[GlcNAc(b1-6)]Gal(b1-4)GlcNAc
# Summary of the method: as §1
# [6] = target: Gal(b1-4)GlcNAc(b1-6)Gal(b1-4)GlcNAc
# Summary of the method: as §1
# [7] = target: Gal(b1-4)GlcNAc(b1-6)GalNAc
# Summary of the method: as §1
# [8] = target: Gal(b1-4)GlcNAc(b1-6)[Gal(b1-3)]GalNAc
# Summary of the method: as §1
# Gal3S(b1-3)GalNAc = target: Gal3S(b1-3)GalNAc
# Summary of the method: as §1
# Gal3S(b1-3)GlcNAc = target: Gal3S(b1-3)GlcNAc
# Summary of the method: as §1
# [9] = target: Gal3S(b1-3)[Fuc(a1-4)]GlcNAc
# Summary of the method: as §1
# Gal3S(b1-4)Glc = target: Gal3S(b1-4)Glc
# Summary of the method: as §1
# Gal3S(b1-4)Glc6S = target: Gal3S(b1-4)Glc6S
# Summary of the method: as §1
# Gal3S(b1-4)GlcNAc = target: Gal3S(b1-4)GlcNAc
# Summary of the method: as §1
# Gal3S(b1-4)GlcNAc6S = target: Gal3S(b1-4)GlcNAc6S
# Summary of the method: as §1
# [10] = target: Gal3S(b1-4)[Fuc(a1-3)]Glc
# Summary of the method: as §1
# [11] = target: Gal3S(b1-4)[Fuc(a1-3)]Glc6S
# Summary of the method: as §1
# Gal3S4S(b1-4)GlcNAc = target: Gal3S4S(b1-4)GlcNAc
# Summary of the method: as §1
# Gal3S6S(b1-4)GlcNAc = target: Gal3S6S(b1-4)GlcNAc
# Summary of the method: as §1
# Gal3S6S(b1-4)GlcNAc6S = target: Gal3S6S(b1-4)GlcNAc6S
# Summary of the method: as §1
# Gal4S(b1-4)GlcNAc = target: Gal4S(b1-4)GlcNAc
# Summary of the method: as §1
# Gal4S6S(b1-4)GlcNAc = target: Gal4S6S(b1-4)GlcNAc
# Summary of the method: as §1
# Gal6S(b1-4)Glc = target: Gal6S(b1-4)Glc
# Summary of the method: as §1
# Gal6S(b1-4)Glc6S = target: Gal6S(b1-4)Glc6S
# Summary of the method: as §1
# Gal6S(b1-4)GlcNAc = target: Gal6S(b1-4)GlcNAc
# Summary of the method: as §1
# Gal6S(b1-4)GlcNAc6S = target: Gal6S(b1-4)GlcNAc6S
# Summary of the method: as §1
# GalNAc(a1-3)Gal = target: GalNAc(a1-3)Gal
# Summary of the method: as §1
# GalNAc(a1-3)GalNAc = target: GalNAc(a1-3)GalNAc
# Summary of the method: as §1
# [12] = target: GalNAc(a1-3)GalNAc(a1-3)Gal(a1-4)Gal(b1-4)GlcNAc
# Summary of the method: as §1
# GalNAc(b1-3)Gal = target: GalNAc(b1-3)Gal
# Summary of the method: as §1
# [13] = target: GalNAc(b1-3)Gal(a1-4)Gal(b1-4)GlcNAc
# Summary of the method: as §1
# [14] = target: GalNAc(b1-3)Gal(a1-4)Gal(b1-4)GlcNAc(b1-3)Gal(b1-4)Glc
# Summary of the method: as §1
# [15] = target: GalNAc(b1-3)Gal(a1-6)Gal(b1-4)Glc
# Summary of the method: as §1
# GalNAc(b1-3)GalNAc = target: GalNAc(b1-3)GalNAc
# Summary of the method: as §1
# GalNAc(b1-4)GlcNAc = target: GalNAc(b1-4)GlcNAc
# Summary of the method: as §1
# [16] = target: GalNAc(b1-4)GlcNAc(b1-2)Man(a1-3)[GalNAc(b1-4)GlcNAc(b1-2)Man(a1-6)]Man(b1-4)GlcNAc(b1-4)GlcNAc
# Summary of the method: as §1
# Glc(a1-4)Glc = target: Glc(a1-4)Glc
# Summary of the method: as §1
binder,measurement,setting,value
"PEB3 (Campylobacter jejuni), Q0PBL7 (protein) MKKIITLFGACALAFSMANADVNLYGPGGPHTALKDIANKYSEKTGVKVNVNFGPQATWFEKAKKDADILFGASDQSALAIASDFGKDFNVSKIKPLYFREAIILTQKGNPLKIKGLKDLANKKVRIVVPEGAGKSNTSGTGVWEDMIGRTQDIKTIQNFRNNIVAFVPNSGSARKLFAQDQADAWITWIDWSKSNPDIGTAVAIEKDLVVYRTFNVIAKEGASKETQDFIAYLSSKEAKEIFKKYGWRE",glycan array binding signal (z-score),[1],0.634
same,glycan array binding signal (z-score),[2],-0.781
same,glycan array binding signal (z-score),[3],-0.199
same,glycan array binding signal (z-score),[4],-0.191
same,glycan array binding signal (z-score),[5],-0.25
same,glycan array binding signal (z-score),[6],-0.012
same,glycan array binding signal (z-score),[7],-0.031
same,glycan array binding signal (z-score),[8],0.227
same,glycan array binding signal (z-score),Gal3S(b1-3)GalNAc,-1.28
same,glycan array binding signal (z-score),Gal3S(b1-3)GlcNAc,1.88
same,glycan array binding signal (z-score),[9],-0.137
same,glycan array binding signal (z-score),Gal3S(b1-4)Glc,-1.17
same,glycan array binding signal (z-score),Gal3S(b1-4)Glc6S,-0.419
same,glycan array binding signal (z-score),Gal3S(b1-4)GlcNAc,-0.295
same,glycan array binding signal (z-score),Gal3S(b1-4)GlcNAc6S,0.158
same,glycan array binding signal (z-score),[10],0.458
same,glycan array binding signal (z-score),[11],1.4
same,glycan array binding signal (z-score),Gal3S4S(b1-4)GlcNAc,-0.424
same,glycan array binding signal (z-score),Gal3S6S(b1-4)GlcNAc,0.282
same,glycan array binding signal (z-score),Gal3S6S(b1-4)GlcNAc6S,-0.101
same,glycan array binding signal (z-score),Gal4S(b1-4)GlcNAc,0.426
same,glycan array binding signal (z-score),Gal4S6S(b1-4)GlcNAc,0.429
same,glycan array binding signal (z-score),Gal6S(b1-4)Glc,0.039
same,glycan array binding signal (z-score),Gal6S(b1-4)Glc6S,1.26
same,glycan array binding signal (z-score),Gal6S(b1-4)GlcNAc,0.659
same,glycan array binding signal (z-score),Gal6S(b1-4)GlcNAc6S,0.504
same,glycan array binding signal (z-score),GalNAc(a1-3)Gal,-0.839
same,glycan array binding signal (z-score),GalNAc(a1-3)GalNAc,-0.103
same,glycan array binding signal (z-score),[12],0.769
same,glycan array binding signal (z-score),GalNAc(b1-3)Gal,0.543
same,glycan array binding signal (z-score),[13],-0.136
same,glycan array binding signal (z-score),[14],-0.513
same,glycan array binding signal (z-score),[15],-0.167
same,glycan array binding signal (z-score),GalNAc(b1-3)GalNAc,0.955
same,glycan array binding signal (z-score),GalNAc(b1-4)GlcNAc,-0.381
same,glycan array binding signal (z-score),[16],4.25
same,glycan array binding signal (z-score),Glc(a1-4)Glc,-0.618

# No new results follow: entries from further up.
binder,measurement,setting,value
"PEB3 (Campylobacter jejuni), Q0PBL7 (protein) MKKIITLFGACALAFSMANADVNLYGPGGPHTALKDIANKYSEKTGVKVNVNFGPQATWFEKAKKDADILFGASDQSALAIASDFGKDFNVSKIKPLYFREAIILTQKGNPLKIKGLKDLANKKVRIVVPEGAGKSNTSGTGVWEDMIGRTQDIKTIQNFRNNIVAFVPNSGSARKLFAQDQADAWITWIDWSKSNPDIGTAVAIEKDLVVYRTFNVIAKEGASKETQDFIAYLSSKEAKEIFKKYGWRE",glycan array binding signal (z-score),Gal6S(b1-4)GlcNAc6S,0.504
same,glycan array binding signal (z-score),GalNAc(a1-3)Gal,-0.839
